Results on one molecule are retold here after publication PMC10989010, “A panel of janus kinase inhibitors identified with anti-inflammatory effects protect mice from lethal influenza virus infection” (Antimicrobial Agents and Chemotherapy, 2024).

For test [1], the system named is IL-8. Briefly: U937 cell-based anti-inflammatory assay for influenza virus infection, IL-8 production (AlphaLISA). The following applies: Homo sapiens, U-937, 72 h, read-out: IC50 IL-8, U937 cells infected with PR8 virus, 72 hours, mean of three independent experiments. Here is the method: U937 cells were seeded in a 96-well culture plate at a density of 1.5 × 10^5 cells per well and incubated for 24 hours prior to virus infection. Subsequently, the cells in each well were infected with the PR8 virus at a multiplicity of infection of 0.05 and treated with serially diluted drugs or left untreated as a control. The drugs were serially diluted threefold, starting from an initial concentration of 200 µM down to 0.01 µM. […] Following this incubation, the supernatants were collected and subjected to AlphaLISA analysis to determine IL-8, IP-10, and MCP1 protein levels.
The AlphaLISA detection kits employed in this study were IL-8 (PerkinElmer AL224), IP-10 (PerkinElmer AL259), and MCP1 (PerkinElmer, AL244). U937 cell culture supernatants were measured for IL-8, IP-10, and MCP-1 protein levels using AlphaLISA assay as per the manufacturer’s recommendations. The ELISA and AlphaLISA plates were read using the Varioskan LUX multimode microplate reader (Thermo Scientiﬁc, Waltham, MA, USA).

Test [2] relates to MCP1. In words: cells. Type of test: cell-based. As to conditions: Homo sapiens, U-937, 72 h, read-out: IC50 MCP1.

As to `CCS(=O)(=O)N1CC(CC#N)(n2cc(-c3ncnc4[nH]ccc34)cn2)C1` [Baricitinib], the IC50 in test [1] amounted to 0.07 µM; in test [2], 0.08 µM.

One may read the IC50 as the concentration at which inhibition is half-maximal.
